PMC10151459
These are yes or no findings as the source states them, for the method shown. In cells and extracts the contact can be indirect. Some entries that bind do so weakly or less than the wild type. Sequences can lack the tags named with a protein.

Key:
[1] = biological target: T1, LTI6b (LOW TEMPERATURE INDUCED PROTEIN 6b)-mCherry (UniProt Q9ZNS6); experiment: FRET or BRET; FRET-FLIM in N. benthamiana leaves transiently expressing the constructs; donor PDLP5-eGFP, acceptors mCherry fusions; GFP lifetime measured at plasmodesmal regions of interest
T1 sequence: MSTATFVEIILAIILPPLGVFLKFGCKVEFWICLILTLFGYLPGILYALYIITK

[2] = biological target: T2, NHL3-mCherry (NDR1/HIN1-LIKE protein 3 tagged with mCherry) (Arabidopsis thaliana) (UniProt Q9FNH6); experiment: as above
T2 sequence: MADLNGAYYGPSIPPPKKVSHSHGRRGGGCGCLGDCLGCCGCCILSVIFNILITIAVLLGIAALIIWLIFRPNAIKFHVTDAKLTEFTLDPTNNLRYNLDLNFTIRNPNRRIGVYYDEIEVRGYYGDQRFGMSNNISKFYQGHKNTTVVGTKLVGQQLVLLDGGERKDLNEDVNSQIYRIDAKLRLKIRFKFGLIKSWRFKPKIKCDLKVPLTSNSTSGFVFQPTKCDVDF

[3] = biological target: T1, LTI6b (LOW TEMPERATURE INDUCED PROTEIN 6b)-mCherry; experiment: co-IP; mCherry-tagged proteins immunoprecipitated from protein extracts of N. benthamiana leaves transiently coexpressing PDLP5-eGFP; blots with anti-GFP and anti-RFP
[4] = biological target: T2, NHL3-mCherry (NDR1/HIN1-LIKE protein 3 tagged with mCherry) (Arabidopsis thaliana); experiment: as above

binding [1]: no binding
binding [2]: binds
binding [3]: no binding
binding [4]: binds
B1: PDLP5-eGFP (PLASMODESMATA-LOCATED PROTEIN 5 fused to eGFP) (protein, UniProt Q8GUJ2 26-299)
chain: SPTDNYIYAVCSPAKFSPSSGYETNLNSLLSSFVTSTAQTRYANFTVPTGKPEPTVTVYGIYQCRGDLDPTACSTCVSSAVAQVGALCSNSYSGFLQMENCLIRYDNKSFLGVQDKTLILNKCGQPMEFNDQDALTKASDVIGSLGTGDGSYRTGGNGNVQGVAQCSGDLSTSQCQDCLSDAIGRLKSDCGMAQGGYVYLSKCYARFSVGGSHARQTPGPNFGHEGEKGNKDDNGVGKTLAIIIGIVTLIILLVVFLAFVGKCCRKLQDEKWCK
